Measured data: PubChem BioAssay AID686943 (Drosophila RNAi Screening Center, 2013)
The deposit covers about 23,000 reagents; shown is an unselected part of those with a known target gene and a result. 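Extra replicates exist only for a retested subset of genes; insulin dose and duration not given; both raised and lowered dpERK matter.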 A plus sign joins genes that one reagent is predicted to hit. Not all columns of the deposit are shown. The record does not give: the amount of reagent, the time to read-out.

Assay: 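Knockdowns that increase or decrease active ERK after insulin receptor stimulation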 (primary screen)
System: Drosophila S2R+ haemocyte-like cells expressing YFP-tagged ERK (Rolled)
Reagents: long dsRNA against Drosophila genes
Challenge: insulin stimulation versus unstimulated cells; dose and duration not given
Measured: 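Per-plate z-scores of phospho-ERK immunostaining normalised to YFP-tagged ERK, measured with and without insulin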
Direction: replicate 1, z-score of dpERK with insulin: higher = more active ERK per ERK-YFP after insulin

Gene,DRSC id,"replicate 1, z-score of dpERK with insulin"
Hakai,DRSC02031,-0.34
CG6180,DRSC02937,0.59
CG32554,DRSC22713,0.32
CG14636,DRSC12223,-0.47
bou,DRSC17924,-0.02
CG32483,DRSC07902,-0.06
Jhbp2,DRSC12292,-0.77
betaNACtes3,DRSC20183,0
CG31294,DRSC22217,-1.04
btsz,DRSC14982,-0.23
btsz,DRSC15222,-0.54
btsz,DRSC15320,4.07
btsz,DRSC16231,0.2
CG32643,DRSC18962,0.12
jeb,DRSC06305,-0.64
jeb,DRSC06307,0.04
Pcyt2,DRSC08531,0.27
aPKC,DRSC05515,0.05
aPKC,DRSC07639,0.5
Fs(2)Ket,DRSC03328,-2.57
ACXC,DRSC00846,-0.46
uex,DRSC20784,-0.6
uex,DRSC20786,-1.87
CG13314,DRSC09985,-0.2
rut,DRSC20367,-4.42
CG17698,DRSC11907,0.45
CG6927,DRSC18407,0.81
Rh50,DRSC08692,1.24
CG7632,DRSC11842,0.5
Nemp,DRSC20206,0.21
Hsp67Bc,DRSC11193,0.61
CG10589,DRSC11629,0.01
brp,DRSC06245,0.01
brp,DRSC06246,-0.66
brp,DRSC06801,0.75
brp,DRSC21893,1.41
Elk,DRSC07608,-0.76
Ca-alpha1T,DRSC17842,-0.11
Ca-alpha1T,DRSC18103,0.02
Ca-alpha1T,DRSC18356,-0.43
Ca-alpha1T,DRSC18357,-0.3
Ca-alpha1T,DRSC21430,-0.1
Chs2,DRSC11830,0.25
Chc,DRSC20229,0.25
Npc1a,DRSC03378,0.15
Taf3,DRSC17170,1.21
CG33252,DRSC19162,0.24
RpS27,DRSC14244,1.91
hry,DRSC11353,-3.35
elav,DRSC18772,0.56
Dip-C,DRSC15855,0.18
CR16735,DRSC15144,-0.76
Acsx3,DRSC14309,0.5
lectin-37Db,DRSC03279,-0.22
Hex-C,DRSC07079,-1.6
alphaKap4,DRSC09823,0.46
Cchl,DRSC15949,0.87
CG15628,DRSC00256,-2.57
CG15628,DRSC00463,0.4
SMSr,DRSC10998,0.63
SMSr,DRSC10999,-2.99
COX5BL,DRSC02123,0.45
CG7966,DRSC16356,-0.46
dpr3,DRSC00395,0.63
dpr3,DRSC00396,-0.26
dpr3,DRSC21369,-2.07
asp,DRSC16903,0.17
CG4593,DRSC18374,-0.53
CG13742 + CNT1,DRSC06413,0.26
Calx,DRSC13457,-0.76
Calx,DRSC13459,0.57
Calx,DRSC16599,0.58
Calx,DRSC21850,-0.35

7 consecutive reagents from above, for reference:
Gene,DRSC id,"replicate 1, z-score of dpERK with insulin"
Cchl,DRSC15949,0.87
CG15628,DRSC00256,-2.57
CG15628,DRSC00463,0.4
SMSr,DRSC10998,0.63
SMSr,DRSC10999,-2.99
COX5BL,DRSC02123,0.45
CG7966,DRSC16356,-0.46
